Measured values taken from paper doi:10.1101/524314.
No constants are given. Whether binding was seen depends on the method and setting. Binding seen in cells or lysates may run through a third protein. Some results given as binding are weak or reduced against the parent protein; the word gives no strength.

Assays:
[1] = target: ribosomal protein L12 (Drosophila melanogaster (endogenous in embryo extract)) (UniProt Q9W1B9); assay: cross-linking
[2] = target: ribosomal protein L23 (Drosophila melanogaster (endogenous in embryo extract)) (UniProt P48159); assay: cross-linking

eukaryotic elongation factor eEF2 (from UniProt P13060 1-844)
binding [1]: binds
binding [2]: binds
